From article PMC9617877
Results are given in words; binding and its absence hold for the method and conditions named. Binding seen in cells or lysates may run through a third protein. Some entries that bind do so weakly or less than the wild type.

By UniProt entry, the sequences of proteins in these tests, tags left out.
UniProt Q9NYV4: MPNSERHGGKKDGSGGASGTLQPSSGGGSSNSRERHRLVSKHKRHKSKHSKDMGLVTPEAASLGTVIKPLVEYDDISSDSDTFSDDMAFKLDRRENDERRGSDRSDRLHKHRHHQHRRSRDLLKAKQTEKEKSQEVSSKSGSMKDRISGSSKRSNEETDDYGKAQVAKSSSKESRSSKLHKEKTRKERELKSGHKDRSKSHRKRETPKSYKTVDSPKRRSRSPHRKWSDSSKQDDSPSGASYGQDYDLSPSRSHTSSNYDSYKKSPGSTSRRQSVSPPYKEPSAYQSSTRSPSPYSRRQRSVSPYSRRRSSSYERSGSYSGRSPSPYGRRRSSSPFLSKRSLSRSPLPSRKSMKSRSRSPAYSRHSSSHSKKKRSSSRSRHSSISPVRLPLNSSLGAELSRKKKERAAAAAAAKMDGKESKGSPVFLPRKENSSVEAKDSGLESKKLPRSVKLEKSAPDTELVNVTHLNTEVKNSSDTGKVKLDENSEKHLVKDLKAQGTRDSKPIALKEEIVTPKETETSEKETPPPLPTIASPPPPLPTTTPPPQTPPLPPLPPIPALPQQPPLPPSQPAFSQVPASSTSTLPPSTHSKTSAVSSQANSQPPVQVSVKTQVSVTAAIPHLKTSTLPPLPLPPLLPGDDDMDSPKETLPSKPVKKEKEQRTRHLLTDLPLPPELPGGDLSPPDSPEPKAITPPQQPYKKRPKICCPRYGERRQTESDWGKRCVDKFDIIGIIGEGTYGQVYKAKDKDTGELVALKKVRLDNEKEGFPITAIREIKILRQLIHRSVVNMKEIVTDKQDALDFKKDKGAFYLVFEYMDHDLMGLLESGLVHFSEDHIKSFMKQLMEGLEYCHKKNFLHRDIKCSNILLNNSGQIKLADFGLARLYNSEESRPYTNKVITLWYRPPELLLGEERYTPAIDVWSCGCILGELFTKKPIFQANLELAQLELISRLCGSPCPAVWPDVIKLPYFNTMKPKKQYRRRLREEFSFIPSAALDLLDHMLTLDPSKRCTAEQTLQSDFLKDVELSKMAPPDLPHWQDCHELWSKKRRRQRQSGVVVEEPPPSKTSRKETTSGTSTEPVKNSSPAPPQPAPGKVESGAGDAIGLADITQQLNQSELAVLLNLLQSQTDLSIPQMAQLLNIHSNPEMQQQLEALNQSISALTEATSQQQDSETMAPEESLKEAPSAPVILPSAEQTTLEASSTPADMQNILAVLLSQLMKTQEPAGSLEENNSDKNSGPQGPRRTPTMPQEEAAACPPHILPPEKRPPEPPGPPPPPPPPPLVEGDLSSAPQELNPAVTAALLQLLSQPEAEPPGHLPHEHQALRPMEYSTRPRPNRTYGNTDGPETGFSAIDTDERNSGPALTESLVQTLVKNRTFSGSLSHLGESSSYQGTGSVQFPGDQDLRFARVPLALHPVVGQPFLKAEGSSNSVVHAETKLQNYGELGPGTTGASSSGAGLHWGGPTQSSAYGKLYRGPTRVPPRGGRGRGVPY
UniProt O75909: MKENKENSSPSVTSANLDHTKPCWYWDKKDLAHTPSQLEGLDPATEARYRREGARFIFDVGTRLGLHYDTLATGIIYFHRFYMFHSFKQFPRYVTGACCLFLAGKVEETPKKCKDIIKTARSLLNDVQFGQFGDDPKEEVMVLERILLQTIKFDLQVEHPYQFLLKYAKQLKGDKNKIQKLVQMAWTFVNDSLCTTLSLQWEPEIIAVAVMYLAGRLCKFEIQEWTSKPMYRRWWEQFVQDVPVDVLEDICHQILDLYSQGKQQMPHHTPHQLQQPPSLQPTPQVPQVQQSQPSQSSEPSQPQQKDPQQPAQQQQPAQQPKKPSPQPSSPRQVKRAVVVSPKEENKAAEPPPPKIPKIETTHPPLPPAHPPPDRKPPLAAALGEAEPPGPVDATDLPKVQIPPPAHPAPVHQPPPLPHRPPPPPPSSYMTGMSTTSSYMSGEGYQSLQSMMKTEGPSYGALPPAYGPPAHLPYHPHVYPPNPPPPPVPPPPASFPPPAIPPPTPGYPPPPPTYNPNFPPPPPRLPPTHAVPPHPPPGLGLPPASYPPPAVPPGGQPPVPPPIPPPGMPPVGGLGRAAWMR

Target: Myc-tagged human CDK12 (6Myc-tagged CDK12 WT in pcDNA3) (human) (UniProt Q9NYV4)
Test: co-IP; Myc-CDK12 immunoprecipitated from transfected HEK293 cells, immunoblot for cyclin K; cells serum-starved overnight, then stimulated with PMA, EGF, insulin or FBS, or treated with BVD-523 or PD184352 before PMA

binding: binds
Substance: Cyclin K (from UniProt O75909 1-580)
